PubChem BioAssay AID1224830 | NIAID | 2016

Purpose: 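Regulators of TLR4 signalling towards TNF-alpha in macrophage-like cells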 (primary screen)
Cells: human THP-1 monocytic leukaemia cells, TNF dual-luciferase reporter clone, PMA-differentiated to macrophage-like cells
Knock-down reagent: siRNA pool against human genes, 50 nM
Timing: LPS for 4 h, given about 3 days after siRNA transfection
Conditions: bacterial LPS (TLR4 ligand), 10 ng/ml
Measured: 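Ratio of firefly to renilla light, scaled to the plate median and expressed as a robust z-score per replicate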
Scale: TNF reporter robust z-score: higher = stronger TNF reporter response to LPS
Call rule: 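a well is active when its z-score exceeds 2.8 or falls below -1.5; control wells carry no call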
Here is a random part of about 18,000 reagents tested. About 2,900 of all reagents (16%) count as active. 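Calls are made per well; low scores hint the gene aids the LPS response, high scores that it dampens it.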 Unmarked entries are inactive. Repeated entries: four replicate wells of each siRNA pool.

no.	gene	TNF reporter robust z-score
1	PPP2R5C (protein phosphatase 2 regulatory subunit B'gamma)	1.1
2	PPP2R5C (protein phosphatase 2 regulatory subunit B'gamma)	2.19
3	PPP2R5C (protein phosphatase 2 regulatory subunit B'gamma)	1.64
4	PPP2R5C (protein phosphatase 2 regulatory subunit B'gamma)	3.33 (active)
5	ALDH1B1 (aldehyde dehydrogenase 1 family member B1)	-0.53
6	ALDH1B1 (aldehyde dehydrogenase 1 family member B1)	-0.23
7	ALDH1B1 (aldehyde dehydrogenase 1 family member B1)	-1.05
8	ALDH1B1 (aldehyde dehydrogenase 1 family member B1)	-0.3
9	THAP3 (THAP domain containing 3)	-0.66
10	THAP3 (THAP domain containing 3)	-0.82
11	THAP3 (THAP domain containing 3)	-0.13
12	THAP3 (THAP domain containing 3)	-0.37
13	ANGPTL5 (angiopoietin like 5)	0.41
14	ANGPTL5 (angiopoietin like 5)	0.42
15	ANGPTL5 (angiopoietin like 5)	-0.24
16	ANGPTL5 (angiopoietin like 5)	-0.01
17	GPR50 (G protein-coupled receptor 50)	-0.06
18	GPR50 (G protein-coupled receptor 50)	-0.55
19	GPR50 (G protein-coupled receptor 50)	0.55
20	GPR50 (G protein-coupled receptor 50)	1.39
21	TMEM234 (transmembrane protein 234)	0.91
22	TMEM234 (transmembrane protein 234)	-0.17
23	TMEM234 (transmembrane protein 234)	1.08
24	TMEM234 (transmembrane protein 234)	-0.37
25	STIL (STIL centriolar assembly protein)	1.47
26	STIL (STIL centriolar assembly protein)	0.68
27	STIL (STIL centriolar assembly protein)	1.66
28	STIL (STIL centriolar assembly protein)	0.45
29	OPRK1 (opioid receptor kappa 1)	0.89
30	OPRK1 (opioid receptor kappa 1)	-0.87
31	OPRK1 (opioid receptor kappa 1)	0.79
32	OPRK1 (opioid receptor kappa 1)	0.56
33	FBXW9 (F-box and WD repeat domain containing 9)	-0.89
34	FBXW9 (F-box and WD repeat domain containing 9)	5.18 (active)
35	FBXW9 (F-box and WD repeat domain containing 9)	-0.2
36	FBXW9 (F-box and WD repeat domain containing 9)	2.13
37	OS9 (OS9 endoplasmic reticulum lectin)	-0.71
38	OS9 (OS9 endoplasmic reticulum lectin)	0.02
39	OS9 (OS9 endoplasmic reticulum lectin)	-0.21
40	OS9 (OS9 endoplasmic reticulum lectin)	1.09
41	C1QC (complement C1q C chain)	0.6
42	C1QC (complement C1q C chain)	-0.18
43	C1QC (complement C1q C chain)	-0.83
44	C1QC (complement C1q C chain)	0.41
45	GCSAML (germinal center associated signaling and motility like)	-0.96
46	GCSAML (germinal center associated signaling and motility like)	-0.35
47	GCSAML (germinal center associated signaling and motility like)	-0.26
48	GCSAML (germinal center associated signaling and motility like)	-0.75
